Among the data in publication PMC9135752 are binding values, retold here.

The chains behind the UniProt entries cited, without tags or fusion partners. Residues count along the entry.
UniProt P0DTC7, residues 16-121: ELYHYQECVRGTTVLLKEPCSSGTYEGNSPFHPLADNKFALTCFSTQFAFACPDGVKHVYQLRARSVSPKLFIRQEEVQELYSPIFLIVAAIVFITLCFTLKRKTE

No constants are given. Whether binding was seen depends on the method and setting. Binding seen in cells or lysates may run through a third protein. Binding can be weak; no strength is given.

In the experiment the target is SARS-CoV-2 N'V5-ORF7a (SARS-CoV-2) (UniProt P0DTC7). The experiment is described as follows: co-IP.

For the substance “SERINC5-HA (pBJ5-hSERINC5-HA) (from UniProt Q86VE9-4)”, the binding result is given as “binds”.
